Counter-ions that a name gives are not always drawn. Some of the results follow. The calls rarely recur for the same compound in another form.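 Kinases, fused to nanoluciferase, were expressed in K562 cells; luminescence was measured every 4 h from 2 to 18 h as percent of control (DMSO = 100%, positive control = 0%). A time point is decreased if signal falls significantly (2 sigma). Hits were called by the authors by a rule that is not shown; the count of time points alone does not decide it.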
Experiments:
Settings in all cases: K562; 2-18 h
YES1 = YES1 (UniProt P07947); assay: number of time points (of 5) at which kinase-Nluc abundance scored as decreased, DMSO-normalised (count); higher = more persistent destabilization
ZAK = ZAK (UniProt Q9NYL2); assay: as above
ZAP70 = ZAP70 (UniProt P43403); assay: as above
CDK4 = CDK4 (UniProt P11802); assay: number of time points (of 4; 2 h point missing) at which kinase-Nluc abundance scored as decreased, DMSO-normalised (count); higher = more persistent destabilization
CDK7 = CDK7 (UniProt P50613); assay: as above
CDK9 = CDK9 (UniProt P50750); assay: as above

The chains behind the UniProt entries cited, without tags or fusion partners. Where a name states a change or a piece, a line headed by the entry shows the natural chain unless it says otherwise.
UniProt P07947, whole entry, looked up: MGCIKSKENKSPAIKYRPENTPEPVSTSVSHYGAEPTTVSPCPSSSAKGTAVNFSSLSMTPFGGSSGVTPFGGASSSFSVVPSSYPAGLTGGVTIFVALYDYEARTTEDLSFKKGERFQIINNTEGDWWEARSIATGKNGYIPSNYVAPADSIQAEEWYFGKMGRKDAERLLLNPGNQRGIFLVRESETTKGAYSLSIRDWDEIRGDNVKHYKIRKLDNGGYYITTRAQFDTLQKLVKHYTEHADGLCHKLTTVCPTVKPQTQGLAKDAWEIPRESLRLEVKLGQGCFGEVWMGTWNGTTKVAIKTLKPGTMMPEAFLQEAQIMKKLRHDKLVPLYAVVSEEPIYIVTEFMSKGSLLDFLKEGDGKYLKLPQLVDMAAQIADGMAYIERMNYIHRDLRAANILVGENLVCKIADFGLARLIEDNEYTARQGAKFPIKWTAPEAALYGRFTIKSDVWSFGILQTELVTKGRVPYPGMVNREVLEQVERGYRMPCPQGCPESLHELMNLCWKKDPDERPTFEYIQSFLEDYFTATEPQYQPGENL
UniProt P43403: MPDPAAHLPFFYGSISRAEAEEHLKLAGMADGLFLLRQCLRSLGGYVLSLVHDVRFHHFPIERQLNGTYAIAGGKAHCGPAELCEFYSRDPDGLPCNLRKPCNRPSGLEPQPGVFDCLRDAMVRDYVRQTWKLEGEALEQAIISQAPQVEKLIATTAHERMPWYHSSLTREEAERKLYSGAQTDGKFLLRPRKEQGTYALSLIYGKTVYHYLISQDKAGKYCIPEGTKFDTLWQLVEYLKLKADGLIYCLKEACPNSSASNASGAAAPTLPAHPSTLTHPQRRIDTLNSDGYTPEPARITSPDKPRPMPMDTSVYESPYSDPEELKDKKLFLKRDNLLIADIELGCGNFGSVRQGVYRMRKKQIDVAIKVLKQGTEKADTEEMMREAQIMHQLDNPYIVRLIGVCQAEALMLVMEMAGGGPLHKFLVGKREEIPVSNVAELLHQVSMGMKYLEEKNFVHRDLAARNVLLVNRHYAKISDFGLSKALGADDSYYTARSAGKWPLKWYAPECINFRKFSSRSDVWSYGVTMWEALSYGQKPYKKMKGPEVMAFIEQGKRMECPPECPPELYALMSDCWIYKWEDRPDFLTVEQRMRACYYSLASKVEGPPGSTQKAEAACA
UniProt P11802: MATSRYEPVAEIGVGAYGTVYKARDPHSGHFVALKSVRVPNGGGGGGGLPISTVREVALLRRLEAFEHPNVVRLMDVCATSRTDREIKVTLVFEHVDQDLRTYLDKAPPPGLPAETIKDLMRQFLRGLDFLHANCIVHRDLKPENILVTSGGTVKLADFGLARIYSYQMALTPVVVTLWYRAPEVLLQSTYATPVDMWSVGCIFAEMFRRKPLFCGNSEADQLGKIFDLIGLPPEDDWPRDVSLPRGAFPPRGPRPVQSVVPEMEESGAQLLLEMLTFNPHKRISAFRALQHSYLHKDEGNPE
UniProt P50613: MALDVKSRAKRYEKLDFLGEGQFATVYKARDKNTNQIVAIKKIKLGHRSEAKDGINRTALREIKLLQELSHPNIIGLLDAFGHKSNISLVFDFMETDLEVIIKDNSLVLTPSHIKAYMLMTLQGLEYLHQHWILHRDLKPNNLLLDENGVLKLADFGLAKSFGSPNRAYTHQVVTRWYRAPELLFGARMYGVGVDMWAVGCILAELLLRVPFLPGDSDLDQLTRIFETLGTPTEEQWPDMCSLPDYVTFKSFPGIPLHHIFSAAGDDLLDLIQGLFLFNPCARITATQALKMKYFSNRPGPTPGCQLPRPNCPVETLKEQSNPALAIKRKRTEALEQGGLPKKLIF
UniProt P50750, whole entry: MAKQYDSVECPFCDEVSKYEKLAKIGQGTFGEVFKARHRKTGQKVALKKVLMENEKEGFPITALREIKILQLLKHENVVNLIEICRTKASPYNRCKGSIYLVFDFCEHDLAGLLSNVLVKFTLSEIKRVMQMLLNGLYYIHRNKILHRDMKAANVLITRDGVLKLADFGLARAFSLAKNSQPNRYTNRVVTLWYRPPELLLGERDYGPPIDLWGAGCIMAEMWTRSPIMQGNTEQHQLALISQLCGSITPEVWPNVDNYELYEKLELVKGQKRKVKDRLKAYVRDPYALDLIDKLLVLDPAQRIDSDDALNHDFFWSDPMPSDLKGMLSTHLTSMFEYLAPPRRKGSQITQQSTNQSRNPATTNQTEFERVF

| Compound | number of time points (YES1) | number of time points (ZAK) | number of time points (ZAP70) | number of time points (CDK4) | number of time points (CDK7) | number of time points (CDK9) |
| --- | --- | --- | --- | --- | --- | --- |
| CC(Cc1ccc(O)c(O)c1)C(C)Cc1ccc(O)c(O)c1 (stereo unspecified) [Nordihydroguaiaretic acid] (2.5 µM) | 0 | 0 | 0 | 0 | 0 | 0 |
| CNC(=O)CNc1cnc2ccc(-c3ccc(OC)c(OC)c3)cc2n1 (10 µM) | 0 | 0 | 0 | 0 | 0 | 0 |
| O=C1NC(=O)/C(=C\c2c[nH]c(=O)c(-c3ccc(N4CCNCC4)nc3)c2)S1 [Protein kinase inhibitors 1 hydrochloride] (10 µM) | 0 | 0 | 0 | 0 | 0 | 0 |
| Clc1ccc(C(c2ccc(Cl)cc2)[n+]2ccn(CC(OCc3ccc(Cl)cc3Cl)c3ccc(Cl)cc3Cl)c2)cc1 (stereo unspecified) [Calmidazolium chloride] (2.5 µM) | 0 | 0 | 0 | 0 | 0 | 0 |
| O=C(Nc1ccc(Cl)cc1)C1CCCN(C(=O)c2cc(C(F)(F)F)cc(C(F)(F)F)c2)C1 (stereo unspecified) (10 µM) | 0 | 0 | 0 | 0 | 4 | 0 |
| Nc1ncc(-c2ccnc(Nc3ccncc3)n2)c(CC2CC2)n1 (10 µM) | 0 | 0 | 0 | 0 | 0 | 0 |
| Cc1cccc(COc2cccc(/C=C3\C(=O)NN(c4ccccc4)C3=O)c2)c1 (10 µM) | 0 | 0 | 0 | 0 | 0 | 0 |
| COC(=O)/C=C/c1ccccc1 [Methyl cinnamate] (10 µM) | 0 | 0 | 0 | 0 | 0 | 0 |
| CN1CCC(CNc2ccc3ncc(-c4cccc(OC(F)(F)F)c4)n3n2)CC1 (2.5 µM) | 0 | 0 | 0 | 0 | 0 | 0 |
| C=CC(=O)N1CC[C@@H](Oc2nc(Nc3ccc(N4CCC(N5CCN(C)CC5)CC4)cc3)c(C(N)=O)nc2CC)C1 [Naquotinib (mesylate)] (2.5 µM) | 0 | 0 | 0 | 0 | 0 | 0 |
| O=C(ON=C1c2ccccc2-c2nc3ccccc3nc21)c1ccco1 (2.5 µM) | 0 | 0 | 0 | 0 | 0 | 0 |
| Cc1c(Cl)cccc1S(=O)(=O)Nc1nc(NCCc2ccccc2)nc2c1CN(Cc1ccccc1)CC2 (2.5 µM) | 0 | 0 | 0 | 0 | 0 | 0 |
| COc1ccc2c3n(c(=NC(=O)c4cccnc4)nc2c1OC)CCN3 (2 µM) | 0 | 0 | 0 | 0 | 0 | 0 |
| CC(C)n1ncnc1-c1cn2c(n1)-c1ccc(O[C@@H](C)C(N)=O)cc1OCC2 (10 µM) | 0 | 0 | 0 | 0 | 0 | 0 |
| COC(=O)Nc1ccc(-c2nc(N3CCOCC3)c3cnn(C4CCN(C(=O)OC)CC4)c3n2)cc1 (10 µM) | 0 | 0 | 0 | 0 | 0 | 0 |
| NCC1CCC(CNc2nc(NCc3ccccc3OC(F)(F)F)ncc2[N+](=O)[O-])CC1 (stereo unspecified) [PKC-theta inhibitor] (10 µM) | 0 | 0 | 0 | 0 | 2 | 1 |
| O=C(NCCN1CCOCC1)Nc1nc2ccc(Sc3nnc4ccc(-c5ccc(F)cc5)nn34)cc2s1 (10 µM) | 0 | 0 | 0 | 0 | 0 | 1 |
| C[C@@H]1O[C@@H](Oc2cc(O)c3c(=O)c(O[C@@H]4O[C@@H](C)[C@H](O)[C@@H](O)[C@H]4O)c(-c4ccc(O)cc4)oc3c2)[C@H](O)[C@H](O)[C@H]1O [Kaempferitrin] (10 µM) | 0 | 0 | 0 | 0 | 0 | 0 |
| COc1ccc(Nc2ncc(C(F)(F)F)c(NC3CC3)n2)cc1OC (10 µM) | 1 | 0 | 0 | 0 | 1 | 0 |
| COC(=O)Nc1ccc(-c2nc(N3CCOCC3)c3cnn(C4CCN(Cc5cccnc5)CC4)c3n2)cc1 (10 µM) | 0 | 0 | 0 | 0 | 0 | 0 |
| CC(C)n1c([C@H](C)Nc2ncnc(N)c2C#N)cc2cccc(-c3ccc(=O)n(C)c3)c2c1=O (10 µM) | 0 | 0 | 0 | 0 | 0 | 0 |
| Cn1c(=O)c2c(nc(S(C)(=O)=O)n2C)n(CC#Cc2cccc(O)c2)c1=O (2.5 µM) | 0 | 0 | 0 | 0 | 0 | 0 |
| COc1cc(F)ccc1-c1ncnc(Nc2cccc(C[S@](C)(=N)=O)c2)n1 [Atuveciclib] (2.5 µM) | 2 | 0 | 0 | 0 | 1 | 3 |

| Compound | number of time points (YES1) | number of time points (ZAK) | number of time points (ZAP70) | number of time points (CDK4) | number of time points (CDK7) | number of time points (CDK9) |
| --- | --- | --- | --- | --- | --- | --- |
| CC(C)n1c(=O)n(C)c2cnc3cc(F)c(-c4ccc(OCCCN5CCCCC5)nc4)cc3c21 (10 µM) | 0 | 0 | 0 | 0 | 0 | 0 |
| Cc1cc(-n2c(=O)ccc3c[nH]c4nccc-4c32)ccc1F (10 µM) | 0 | 0 | 0 | 0 | 0 | 0 |
| Cn1ncc(NC(=O)c2nc(-c3c(F)cccc3F)sc2N)c1N1CC[C@@H](N)[C@H](F)CC1 (10 µM) | 0 | 0 | 0 | 0 | 0 | 0 |
| COc1cc2ncnc(Oc3ccc(CC(=O)Nc4cnn(C(C)C)c4)cc3)c2cc1OC (10 µM) | 0 | 0 | 0 | 0 | 0 | 0 |
| N#Cc1cnc2c(Cl)cc(NCc3cn(CCN4CCCCCC4)nn3)cc2c1Nc1ccc(F)c(Cl)c1 [Cot inhibitor-1] (10 µM) | 0 | 0 | 0 | 0 | 0 | 0 |
| CCCCCC(=O)N[C@@H](Cc1ccc(O)cc1)C(=O)OC (10 µM) | 0 | 0 | 0 | 0 | 0 | 0 |
| O=C(Nc1cc(Cl)cc2c1[nH]c1cnccc12)c1cccnc1 (10 µM) | 0 | 0 | 0 | 0 | 0 | 0 |
| CC1=C(C(=O)Nc2cc3cn[nH]c3cc2F)C(c2ccc(C(F)(F)F)cc2)CC(=O)N1 (stereo unspecified) (10 µM) | 0 | 0 | 0 | 0 | 0 | 0 |
| Cc1cc(C(=O)Nc2nc3cccc(Cl)c3n2[C@@H]2CCCCN(C(=O)/C=C/CN(C)C)C2)ccn1 [Nazartinib] (10 µM) | 0 | 0 | 0 | 0 | 0 | 0 |
| Nc1ncnc2c1nc(Br)n2[C@@H]1O[C@@H]2COP(=O)(O)O[C@H]2[C@H]1O [8-Bromo-cAMP sodium salt] (10 µM) | 0 | 0 | 0 | 0 | 0 | 0 |
| CCN(CC)CCCC(C)Nc1nc(C)cc(Nc2ccc3nc(C)cc(N)c3c2)n1 (stereo unspecified) (10 µM) | 0 | 0 | 0 | 0 | 0 | 0 |
| O=c1cc(-c2ccccc2)oc2cc(O[C@@H]3O[C@H](CO[C@@H]4O[C@H](CO)[C@@H](O)[C@H](O)[C@H]4O)[C@@H](O)[C@H](O)[C@H]3O)c(O)c(O)c12 [Oroxin B] (10 µM) | 0 | 0 | 0 | 0 | 0 | 0 |
| Cc1ccc(C)c(OCCn2cc(C(=O)O)c3ccccc32)c1 (10 µM) | 0 | 0 | 0 | 0 | 0 | 0 |
| CCCCCc1ccc(/C=C/[C@H](O)[C@@H](CO)NC)cc1 [SK1-I (hydrochloride)] (10 µM) | 0 | 0 | 0 | 0 | 0 | 0 |
| C=CC(=O)Nc1cc(Nc2nccc(-c3cn(C)c4ccccc34)n2)c(OC)cc1N(C)CCNC [AZ7550 Mesylate] (2.5 µM) | 0 | 0 | 0 | 0 | 1 | 0 |
| COc1cc2c(cc1O)C[C@H]1c3cc(O)c(OC)cc3CC[N@@+]1(C)C2 [Phellodendrine] (10 µM) | 0 | 0 | 0 | 0 | 0 | 0 |
| C[C@@H](Nc1ncnc2[nH]c(-c3ccc(O)cc3)cc12)c1ccccc1 (2.5 µM) | 0 | 0 | 0 | 0 | 0 | 0 |
| C=CC(=O)N1CCN(C(=O)CNc2cc(I)c(Cl)cc2O)CC1 [K-Ras(G12C) inhibitor 12] (10 µM) | 0 | 0 | 0 | 0 | 0 | 0 |
| Cc1cc(C)cc(NC(N)=Nc2ccccc2C(F)(F)F)c1 (10 µM) | 0 | 0 | 0 | 0 | 0 | 0 |
| N#Cc1ccc(-c2cnc3ccc(-c4ccc(C(=O)N5CCOCC5)cc4)cn23)cc1 (10 µM) | 0 | 0 | 0 | 0 | 0 | 0 |
| Cc1nc[nH]c1CN1CCN(C(=O)N[C@@H](CC(C)C)C(=O)O)[C@@H](Cc2ccccc2)C1=O (10 µM) | 0 | 0 | 0 | 0 | 0 | 0 |
| CO[C@H]1C[C@@H]2CC[C@@H](C)[C@@](O)(O2)C(=O)C(=O)N2CCCC[C@H]2C(=O)O[C@H]([C@H](C)C[C@@H]2CC[C@@H](OC(=O)C(C)(CO)CO)[C@H](OC)C2)CC(=O)[C@H](C)/C=C(\C)[C@@H](O)[C@@H](OC)C(=O)[C@H](C)C[C@H](C)/C=C/C=C/C=C/1C [Temsirolimus] (2.5 µM) | 0 | 0 | 0 | 0 | 0 | 0 |
| Cc1ccc(NC(=O)Nc2cc(C(F)(F)F)ccc2F)cc1Nc1ccc2c(c1)NC(=O)/C2=C\c1ccc[nH]1 (2.5 µM) | 0 | 0 | 0 | 0 | 0 | 0 |

Looked up above:
Cc1cccc(COc2cccc(/C=C3\C(=O)NN(c4ccccc4)C3=O)c2)c1 (10 µM) – number of time points (CDK4): 0
CCCCCC(=O)N[C@@H](Cc1ccc(O)cc1)C(=O)OC (10 µM) – number of time points (CDK4): 0
CC1=C(C(=O)Nc2cc3cn[nH]c3cc2F)C(c2ccc(C(F)(F)F)cc2)CC(=O)N1 (stereo unspecified) (10 µM) – number of time points (CDK4): 0
